Assay results: PubChem BioAssay AID2685 (National Center for Advancing Translational Sciences (NCATS), 2010)
The other results are listed elsewhere or left out. Shown are side measurements of this screen, not its main read-out; they come without a call. Compounds called inactive in the main read-out are mostly missing here. Potencies come from curve fits of mixed quality, noted in brackets.

Test: qHTS Assay for Lipid Storage Modulators in Drosophila S3 Cells;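 on cell number change: cells counted by Cell Tracker Red CMTPX staining in the red channel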
Conditions: BODIPY lipid droplet fluorescence, 18-24 h; for cell number change: measured here: cell count max response, cells fed with added oleic acid
In short: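 Laser-scanning cytometry quantifies lipid droplet accumulation (500–530 nm total intensity; droplet/cell object ratio) in oleic acid-fed (400 uM added) Drosophila S3 cells treated with a concentration series. 20 uM Triacsin C defined 100% inhibition.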

[1] = measured here: lipid fluorescence (Fed channel) AC50, cells fed with added oleic acid
[2] = measured here: cell number channel AC50, cells fed with added oleic acid

Row | Compound | cell number change [%] | AC50 [1] | AC50 [2]
1 | Cc1nnsc1C(=O)Nc1ccccc1Cl | -13 | – | –
2 | O=c1[nH]c(N2CCN(c3ccccc3)CC2)nc2c1CCCC2 | 0.926 | 0.116 µM [falling, full curve, poor fit] | –
3 | O=c1n(Cc2ccc(F)cc2)nc2n1-c1ccccc1SC2 | 19.2 | 0.82 µM [rising, partial curve, poor fit] | –
4 | CCOc1ccc2[nH]c3c(NCCO)ncnc3c2c1 | – | 0.13 µM [falling, full curve, poor fit] | –
5 | c1ccc(CCNCCCOc2cccc3ccccc23)cc1 | -4.11 | 29.1 µM [rising, single point] | –
6 | Cc1cccc(NC(=O)c2c(C)cc(=O)oc2C)n1 | – | 7.31 µM [falling, partial curve] | –
7 | CC(=O)C1=C(O)C(=O)N(c2ccc(O)cc2)C1c1cccc(F)c1 (stereo not drawn) | 57 | – | 9.2 µM [rising, partial curve]
8 | CCOc1cc(C2C3=C(CCCC3=O)N(CCC(=O)O)C3=C2C(=O)CCC3)ccc1OS(=O)(=O)c1ccc(C)cc1 | -10.7 | 0.82 µM [rising, full curve, poor fit] | –
9 | c1cc(-c2nn[nH]n2)ccc1CN1CCCCC1 | – | 16.4 µM [falling, partial curve] | 6.51 µM [falling, single point]
10 | CC(C)(C)N(Cc1ccccc1)C(=O)COC(=O)CSc1ccc([N+](=O)[O-])cc1 | -0.961 | – | –
11 | Cc1ccccc1NS(=O)(=O)c1ccc(C(=O)N2CCC2)cc1 | -39.3 | 6.51 µM [falling, single point] | 3.26 µM [falling, full curve]
12 | O=C(CSc1nccc(=O)[nH]1)c1ccccc1Br | – | 0.411 µM [rising, partial curve, poor fit] | 1.46 µM [rising, partial curve]
13 | CCc1cc(-c2n[nH]c(=S)n2CC)cs1 | 0.988 | 6.51 µM [rising, full curve] | –
14 | OC(CNCCc1ccc(Cl)cc1Cl)COc1ccccc1 (stereo not drawn) | -34.5 | – | –
15 | C=C(C)c1cccc(C(C)(C)NC(=O)N2CCN(CC(N)=O)CC2)c1 | -13.9 | 29.1 µM [falling, partial curve, poor fit] | –
16 | COc1cccc(-c2ncc3ccccc3c2COC(=O)N(C)C)c1 | -11.8 | 0.092 µM [falling, single point] | –
17 | Cc1ccc(C2C3=C(NCCN=C3c3ccccc3)C(=O)N2c2ccccc2)cc1 (stereo not drawn) | -70.4 | 1.64 µM [falling, full curve] | 23.1 µM [falling, partial curve, poor fit]
18 | Cc1ccc(-c2cc(NC(=O)CSc3n[nH]c(N)n3)n(-c3ccccc3)n2)cc1 | – | 0.259 µM [rising, full curve] | 0.146 µM [rising, full curve, poor fit]
19 | CCOCC(=O)Nc1nnc(SCCOC)s1 | -8.99 | 1.16 µM [falling, full curve] | –
20 | O=C(Nc1ccc(F)cc1F)N1CCCN(c2ccc(C(F)(F)F)cn2)CC1 | 23.6 | 14.6 µM [rising, partial curve, poor fit] | –
21 | CC(=O)c1ccc(N2CCN(C(=O)c3n[nH]c4ccccc34)CC2)cc1 | – | – | 2.91 µM [rising, partial curve]

Row | Compound | cell number change [%] | AC50 [1] | AC50 [2]
22 | CN1CCN(C(=O)c2ccc(N3CCCC3=O)cc2)CC1 | -40.5 | – | 5.17 µM [falling, full curve]
23 | COC(=O)c1cc(=O)nc2sc(-c3ccccc3)nn12 | -3.51 | – | –
24 | CCOc1ccc(CCNC(=O)c2cccc(N3CCCC3=O)c2)cc1OCC | – | – | 2.31 µM [falling, partial curve]
25 | N#C/C(=C(/O)COC(=O)CCCNC(=O)c1ccc(Cl)cc1)c1nc2ccccc2[nH]1 | 51.2 | – | 6.51 µM [rising, partial curve, poor fit]
26 | O=C(/C=C/c1ccccc1)NC(NC(=S)Nc1ccc(Cl)cc1Cl)C(Cl)(Cl)Cl (stereo not drawn) | -27.9 | – | –
27 | CC1CCCCC1NC(=O)CN1C(=O)NC(C)(c2cc(F)ccc2F)C1=O (stereo not drawn) | 11.1 | – | –
28 | Cc1ccc(SC(C)C(=O)Nc2cccnc2)cc1 (stereo not drawn) | -24.1 | 0.326 µM [falling, full curve, poor fit] | –
29 | CC/C(=N/NS(=O)(=O)c1ccc(Cl)cc1)c1ccc(O)cc1 | -7.91 | 0.82 µM [falling, full curve, poor fit] | –
30 | COc1ccc(NC(=O)c2cccc(N3C(=O)c4ccc(C(=O)Nc5ccc(OC)c(O)c5)cc4C3=O)c2)cc1O | 33.5 | – | 2.91 µM [rising, full curve, poor fit]
31 | O=C(CNS(=O)(=O)c1ccccc1)OCC(=O)c1ccc([N+](=O)[O-])cc1 | -16.2 | 7.31 µM [falling, partial curve, poor fit] | –
32 | O=C(NCCCn1ccnc1)c1ccc(S(=O)(=O)Nc2ccccc2)cc1 | 23.7 | – | 0.00411 µM [rising, full curve, poor fit]
33 | CSc1ncccc1C(=O)NC1CCCCCCC1 | 18.2 | 23.1 µM [rising, single point] | –
34 | COC(=O)c1ccc2c(=O)n(CC3CCCO3)c(SCC(=O)Nc3ccccc3OC)nc2c1 (stereo not drawn) | 3.55 | 4.11 µM [falling, single point] | –
35 | O=C(Nc1ccc2c(c1)OCCO2)c1cnn(-c2ccccc2)n1 | -7.27 | 2.06 µM [rising, partial curve] | –
36 | CCC(=O)c1ccc(OCC(=O)O)c(OC)c1 | 4.14 | – | –
37 | NC(=O)C1CCN(C(=O)/C(=C/c2ccco2)NC(=O)c2ccccc2)CC1 | -8.57 | – | –
38 | O=C1c2ccccc2C(=O)N1CCc1ccccn1 | – | – | 0.291 µM [rising, single point]
39 | Cc1ccc(-n2ncc3c2CC(C)(C)CC3NC(=O)c2c(C)noc2C)cc1 (stereo not drawn) | – | – | 6.51 µM [rising, single point]
40 | COc1ccccc1N(CC(O)COc1ccccc1)S(=O)(=O)c1ccccc1 (stereo not drawn) | 15.9 | 23.1 µM [rising, single point] | –
41 | CC(O)CNCCCOc1cccc(C(F)(F)F)c1 (stereo not drawn) | -48 | 16.4 µM [falling, single point] | 16.4 µM [falling, single point]
42 | COc1ccc(NS(=O)(=O)c2cccc(NC(=O)c3ccc(S(=O)(=O)N4CCCCCC4)cc3)c2)cc1 | -49.1 | 2.59 µM [falling, full curve] | 25.9 µM [falling, single point]

Row | Compound | cell number change [%] | AC50 [1] | AC50 [2]
43 | CCOc1ccc(-n2c(=O)c3sccc3n(CC(=O)NCC3CCCO3)c2=O)cc1 (stereo not drawn) | -2.86 | – | –
44 | COc1ccc(C(C)(C)C)cc1NC(=O)Nc1ccc2c(c1)OCO2 | -16.8 | 23.1 µM [falling, single point] | –
45 | COc1ccc(C(=O)Nc2cc(C)nn2-c2cccc(F)c2)cc1 | 10.5 | – | –
46 | COC(=O)[C@]1(CC(C)C)N[C@H](c2ccc(-c3ccc(Cl)c(Cl)c3)cc2)[C@@H]2C(=O)N(C)C(=O)[C@@H]21 | -52.7 | – | 7.31 µM [falling, partial curve]
47 | CCOC(=O)N1CCN(C(=O)CN(Cc2ccc(Cl)cc2)S(=O)(=O)c2ccc(C)cc2)CC1 | 115 | – | 14.6 µM [rising, partial curve]
48 | Nc1nc(SCC(=O)N2CCCc3ccccc32)[nH]c(=O)c1-c1ccccc1 | 11.5 | 16.4 µM [rising, partial curve] | –
49 | O=c1cc(C(F)(F)F)nc(-n2[nH]c3c(c2=O)CCCC3)[nH]1 | 1.07 | 18.4 µM [falling, partial curve] | –
50 | O=C(CSc1ccc2nnc(-c3cccnc3)n2n1)Nc1ccccc1 | – | 1.64 µM [falling, partial curve] | –
51 | c1ccc2c(c1)Oc1ccccc1S2 | -14.9 | 0.82 µM [rising, full curve, poor fit] | –
52 | CCOc1ccc(S(=O)(=O)NCc2ccc3c(c2)OCO3)cc1C(=O)O | 21.5 | 16.4 µM [rising, partial curve] | –
53 | COc1ccccc1-c1noc2ncnc(Nc3cccc(C)c3C)c12 | -9.71 | 29.1 µM [falling, single point] | –
54 | COCCNC(=S)NC(=O)c1ccc(C(C)(C)C)cc1 | -18.5 | 5.17 µM [falling, full curve] | 4.11 µM [falling, single point]
55 | CSCCC(NC(=O)c1ccc(Cl)cc1Cl)C(=O)OCC(N)=O (stereo not drawn) | -20.2 | 18.4 µM [falling, partial curve] | –
56 | CN1CCC2(CC1)NC(=O)NC2=O | 13.3 | 4.11 µM [rising, full curve] | –
57 | CCC(=O)NC(c1cc(Cl)c2ccccc2c1O)C(C)C (stereo not drawn) | -34.6 | – | 25.9 µM [falling, single point]
58 | Cc1ccc(C(=O)Nc2ccccc2C(=O)O)cc1S(=O)(=O)Nc1ccccc1 | 23.2 | 29.1 µM [falling, single point] | –
59 | N#CNC1=NCN(Cc2ccccc2)CN1 | -15.3 | – | –
60 | O=C(CSCC(=O)N1CCN(c2ccccc2)CC1)Nc1nc(-c2ccc(Cl)s2)cs1 | 1.72 | 29.1 µM [falling, single point] | –
61 | COc1ccc(-n2ncc3c(N4CCC(C)CC4)ncnc32)cc1 | 1.8 | 32.6 µM [falling, single point] | –
62 | C(=C\c1ccccc1)/C=N/Nc1nncc(-c2ccccc2)n1 | 2.8 | 0.291 µM [rising, full curve] | –
63 | Cc1sc2nc(CN3CCN(c4ccc(O)cc4)CC3)[nH]c(=O)c2c1C | 14 | 4.61 µM [rising, full curve, poor fit] | –

Part of the list above, limited to AC50 [2] and cell number change [%]:
Row,Compound,AC50 [2],cell number change [%]
43,CCOc1ccc(-n2c(=O)c3sccc3n(CC(=O)NCC3CCCO3)c2=O)cc1 (stereo not drawn),–,-2.86
44,COc1ccc(C(C)(C)C)cc1NC(=O)Nc1ccc2c(c1)OCO2,–,-16.8

In the list so far, these contain a tert-butyl group:
Row | Compound | cell number change [%] | AC50 [1] | AC50 [2]
10 | CC(C)(C)N(Cc1ccccc1)C(=O)COC(=O)CSc1ccc([N+](=O)[O-])cc1 | -0.961 | – | –
44 | COc1ccc(C(C)(C)C)cc1NC(=O)Nc1ccc2c(c1)OCO2 | -16.8 | 23.1 µM [falling, single point] | –
54 | COCCNC(=S)NC(=O)c1ccc(C(C)(C)C)cc1 | -18.5 | 5.17 µM [falling, full curve] | 4.11 µM [falling, single point]
